Results are given in words; binding and its absence hold for the method and conditions named. In cells and extracts the contact can be indirect. Some binding calls cover weakened binding; strength is not graded here. Where a sequence is shown, tags or fusion partners need not be part of it.

For the test, the target named is T1, C-terminal myc-tagged version of Narp (myc-Narp) (Rattus norvegicus (Rat)) (UniProt P97738).
T1 sequence: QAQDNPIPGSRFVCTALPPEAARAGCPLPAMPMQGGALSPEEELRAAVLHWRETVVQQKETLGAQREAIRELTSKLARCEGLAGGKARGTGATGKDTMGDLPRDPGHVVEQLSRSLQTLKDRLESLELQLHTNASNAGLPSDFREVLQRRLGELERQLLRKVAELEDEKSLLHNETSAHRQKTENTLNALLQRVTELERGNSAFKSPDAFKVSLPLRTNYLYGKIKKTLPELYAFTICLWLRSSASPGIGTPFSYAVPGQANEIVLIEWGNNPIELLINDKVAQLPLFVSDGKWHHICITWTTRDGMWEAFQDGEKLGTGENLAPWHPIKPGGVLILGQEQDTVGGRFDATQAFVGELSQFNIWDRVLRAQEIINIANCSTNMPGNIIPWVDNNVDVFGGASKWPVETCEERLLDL
Briefly: competition in the GST pull-down; competitor of GST-G1-NarI.

Take LRRQRIDISRRG [synthetic G1-12mer peptide]: the binding entry is reported as “binds”.

(Values after US20090123940A1, “MOLECULES INVOLVED IN SYNAPTOGENESIS AND USES THEREFOR” (THE JOHNS HOPKINS UNIVERSITY, priority 2007, published 2009).)
